Test system: male fosTRAP2×Ai14 mice
Experiment: Two-bottle choice (water vs 20% ethanol) drinking after ethanol exposure
Assay type: in vivo
Settings: planned contrast across follow-up; LSD 50 ug/kg or BOL-148 3.0 mg/kg IP
Text: Twenty-five adult (12-30-week old), male fosTRAP2×Ai14 mice were bred in-house. Generation of the fosTRAP2 and FosTRAP lines were previously described (Guenthner, et al.). fosTRAP2 mice were crossed with Ai14 mice to obtain the mice used in this study. Mice were single-housed on a reverse light-dark cycle and given unlimited access to standard mouse chow and water. Animals were given a week to habituate to single housing, after which they were given free access to 2 bottles containing water and 20% ethanol for 24-hour periods beginning at the start of their dark cycle, 5 days per week (Monday-Friday) for 4 weeks (ethanol exposure). Amount of water and ethanol consumed (by volume and weight) were measured for each mouse across the final 5 days of the ethanol exposure period, and ethanol preference was counterbalanced across treatment group by the mean ethanol preference by weight (corrected for body weight) during this period.
Following 4 weeks of ethanol exposure, animals were administered one of 3 treatments via a single intraperitoneal injection 10 minutes prior to onset of the dark cycle/day one in a five-day cycle of alcohol exposure: saline, LSD 50 ug/kg, or BOL-148 3.0 mg/kg. […] Amount of water and ethanol consumed (by volume and weight) were measured daily at the end of the light cycle. […]

CCN(CC)C(=O)[C@@H]1C=C2c3cccc4[nH]c(Br)c(c34)C[C@H]2N(C)C1 [BOL-148, 2-bromo-lysergic acid diethylamide]
total fluid consumption, mean difference Saline vs. treatment: 0.086 mg total fluid consumed/mg of body weight

CCN(CC)C(=O)[C@@H]1C=C2c3cccc4[nH]cc(c34)C[C@H]2N(C)C1 [LSD, lysergic acid diethylamide]
total fluid consumption, mean difference Saline vs. treatment: 0.167 mg total fluid consumed/mg of body weight
